Source: PubChem BioAssay AID1508597 (Cure First, 2020)
Shown is an unselected part of the about 2,100 reagents, in one setting of the screen. 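Calls flag viability under 80% in either arm, not effects specific to rucaparib; the reference for percent is not stated.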 Some reagents were tested in more than one well and are listed for each. Not stated in the record: the 100% reference.

Screen: 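Survival screen with siRNA in ovarian cancer cells derived from patients, with or without rucaparib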 (primary screen)
System: human ovarian carcinoma lines grown from tumours: OCI-P5x (papillary serous) and OCI-C5x (clear cell)
Knock-down reagent: siRNA pool against human genes, 1.25 pmol siRNA per well
Duration: 72 h or 96 h, depending on the cell culture
Conditions: rucaparib 20 µM (about IC30) or vehicle, present until read-out
Rucaparib or vehicle: Rucaparib
Cell line: OCI-P5x (serous)
Detection: 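Luminescent ATP-based viability assay read 72 or 96 h after transfection, depending on culture, given as normalised percent viability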
Scale: viability, normalised: higher = more viable cells remaining
Hit rule: 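Active when normalised viability falls below 80 percent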
Calls: active = viability under 80%; inactive = viability 80% or more

| gene symbol | technical replicate | viability, normalised (%) | Outcome |
| --- | --- | --- | --- |
| CBX5 (GeneID 23468) | 1 | 75.6 | active |
| CBX5 (GeneID 23468) | 1 | 87.6 | inactive |
| CBX5 (GeneID 23468) | 2 | 95.1 | inactive |
| CBX5 (GeneID 23468) | 2 | 88 | inactive |
| CBX5 (GeneID 23468) | 3 | 73.6 | active |
| CBX5 (GeneID 23468) | 3 | 79.4 | active |
| BOK (GeneID 666) | 1 | 72.7 | active |
| BOK (GeneID 666) | 2 | 70.4 | active |
| BOK (GeneID 666) | 3 | 53.8 | active |
| DHX58 (GeneID 79132) | 1 | 67.9 | active |
| DHX58 (GeneID 79132) | 2 | 77.7 | active |
| DHX58 (GeneID 79132) | 3 | 75.2 | active |
| FLT3 (GeneID 2322) | 1 | 76.3 | active |
| FLT3 (GeneID 2322) | 2 | 87.4 | inactive |
| FLT3 (GeneID 2322) | 3 | 61.3 | active |
| ENPP7 (GeneID 339221) | 1 | 57.2 | active |
| ENPP7 (GeneID 339221) | 2 | 52.6 | active |
| ENPP7 (GeneID 339221) | 3 | 58.4 | active |
| NME7 (GeneID 29922) | 1 | 61.2 | active |
| NME7 (GeneID 29922) | 1 | 85.6 | inactive |
| NME7 (GeneID 29922) | 2 | 70 | active |
| NME7 (GeneID 29922) | 2 | 74.9 | active |
| NME7 (GeneID 29922) | 3 | 69.9 | active |
| NME7 (GeneID 29922) | 3 | 75.7 | active |
| RSF1 (GeneID 51773) | 1 | 57.6 | active |
| RSF1 (GeneID 51773) | 2 | 68.7 | active |
| RSF1 (GeneID 51773) | 3 | 50.7 | active |
| SLC17A1 (GeneID 6568) | 1 | 48.7 | active |
| SLC17A1 (GeneID 6568) | 2 | 58.7 | active |
| SLC17A1 (GeneID 6568) | 3 | 65.5 | active |
| RAD17 (GeneID 5884) | 1 | 76.3 | active |
| RAD17 (GeneID 5884) | 2 | 63.2 | active |
| RAD17 (GeneID 5884) | 3 | 64.5 | active |
| MSL3 (GeneID 10943) | 1 | 56.3 | active |
| MSL3 (GeneID 10943) | 2 | 65.4 | active |
| MSL3 (GeneID 10943) | 3 | 66 | active |
| RPH3A (GeneID 22895) | 1 | 33.8 | active |
| RPH3A (GeneID 22895) | 2 | 42.3 | active |
| RPH3A (GeneID 22895) | 3 | 37.3 | active |
| PRPS1 (GeneID 5631) | 1 | 86.7 | inactive |
| PRPS1 (GeneID 5631) | 2 | 85 | inactive |
| PRPS1 (GeneID 5631) | 3 | 102 | inactive |
| SPOCK2 (GeneID 9806) | 1 | 58.6 | active |
| SPOCK2 (GeneID 9806) | 2 | 53.7 | active |
| SPOCK2 (GeneID 9806) | 3 | 54.9 | active |
| ABCG2 (GeneID 9429) | 1 | 85.4 | inactive |
| ABCG2 (GeneID 9429) | 2 | 98.5 | inactive |
| ABCG2 (GeneID 9429) | 3 | 82.5 | inactive |
| JADE1 (GeneID 79960) | 1 | 51.6 | active |
| JADE1 (GeneID 79960) | 2 | 57.6 | active |
| JADE1 (GeneID 79960) | 3 | 60 | active |
| DSCC1 (GeneID 79075) | 1 | 96.2 | inactive |
| DSCC1 (GeneID 79075) | 2 | 97.4 | inactive |
| DSCC1 (GeneID 79075) | 3 | 98.9 | inactive |
| PHF3 (GeneID 23469) | 1 | 47 | active |
| PHF3 (GeneID 23469) | 2 | 40 | active |
| PHF3 (GeneID 23469) | 3 | 40.3 | active |
| PRKAA2 (GeneID 5563) | 1 | 99.6 | inactive |
| PRKAA2 (GeneID 5563) | 2 | 91.2 | inactive |
| PRKAA2 (GeneID 5563) | 3 | 93 | inactive |
| RBKS (GeneID 64080) | 1 | 65 | active |
| RBKS (GeneID 64080) | 2 | 78.7 | active |
| RBKS (GeneID 64080) | 3 | 67.6 | active |
| SMARCB1 (GeneID 6598) | 1 | 62.5 | active |
| SMARCB1 (GeneID 6598) | 2 | 50.6 | active |
| SMARCB1 (GeneID 6598) | 3 | 55.7 | active |
| MORF4L1 (GeneID 10933) | 1 | 56.3 | active |
| MORF4L1 (GeneID 10933) | 2 | 65.9 | active |
| MORF4L1 (GeneID 10933) | 3 | 66.9 | active |
| PDE6A (GeneID 5145) | 1 | 32.3 | active |
| PDE6A (GeneID 5145) | 2 | 33.1 | active |
| PDE6A (GeneID 5145) | 3 | 44.3 | active |
| NTRK2 (GeneID 4915) | 1 | 97.5 | inactive |
| NTRK2 (GeneID 4915) | 2 | 89.6 | inactive |
| NTRK2 (GeneID 4915) | 3 | 91.1 | inactive |

Entries listed so far whose target name begins with J or j:
| gene symbol | technical replicate | viability, normalised (%) | Outcome |
| --- | --- | --- | --- |
| JADE1 (GeneID 79960) | 1 | 51.6 | active |
| JADE1 (GeneID 79960) | 2 | 57.6 | active |
| JADE1 (GeneID 79960) | 3 | 60 | active |
